Source: the supplement of paper PMC10849652
This is one part of the list.

The chains behind the UniProt entries cited, without tags or fusion partners. Where a name states a change or a piece, a line headed by the entry shows the natural chain unless it says otherwise.
UniProt Q13277: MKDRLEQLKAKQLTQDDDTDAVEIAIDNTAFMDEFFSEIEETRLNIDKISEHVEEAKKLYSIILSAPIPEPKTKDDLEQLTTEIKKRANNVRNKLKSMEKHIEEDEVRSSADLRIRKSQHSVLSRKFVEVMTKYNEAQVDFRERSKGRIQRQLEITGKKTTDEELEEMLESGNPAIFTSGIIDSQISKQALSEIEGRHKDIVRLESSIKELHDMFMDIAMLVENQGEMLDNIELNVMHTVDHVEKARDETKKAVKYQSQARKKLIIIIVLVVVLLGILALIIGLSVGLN
UniProt O43426, whole entry, looked up: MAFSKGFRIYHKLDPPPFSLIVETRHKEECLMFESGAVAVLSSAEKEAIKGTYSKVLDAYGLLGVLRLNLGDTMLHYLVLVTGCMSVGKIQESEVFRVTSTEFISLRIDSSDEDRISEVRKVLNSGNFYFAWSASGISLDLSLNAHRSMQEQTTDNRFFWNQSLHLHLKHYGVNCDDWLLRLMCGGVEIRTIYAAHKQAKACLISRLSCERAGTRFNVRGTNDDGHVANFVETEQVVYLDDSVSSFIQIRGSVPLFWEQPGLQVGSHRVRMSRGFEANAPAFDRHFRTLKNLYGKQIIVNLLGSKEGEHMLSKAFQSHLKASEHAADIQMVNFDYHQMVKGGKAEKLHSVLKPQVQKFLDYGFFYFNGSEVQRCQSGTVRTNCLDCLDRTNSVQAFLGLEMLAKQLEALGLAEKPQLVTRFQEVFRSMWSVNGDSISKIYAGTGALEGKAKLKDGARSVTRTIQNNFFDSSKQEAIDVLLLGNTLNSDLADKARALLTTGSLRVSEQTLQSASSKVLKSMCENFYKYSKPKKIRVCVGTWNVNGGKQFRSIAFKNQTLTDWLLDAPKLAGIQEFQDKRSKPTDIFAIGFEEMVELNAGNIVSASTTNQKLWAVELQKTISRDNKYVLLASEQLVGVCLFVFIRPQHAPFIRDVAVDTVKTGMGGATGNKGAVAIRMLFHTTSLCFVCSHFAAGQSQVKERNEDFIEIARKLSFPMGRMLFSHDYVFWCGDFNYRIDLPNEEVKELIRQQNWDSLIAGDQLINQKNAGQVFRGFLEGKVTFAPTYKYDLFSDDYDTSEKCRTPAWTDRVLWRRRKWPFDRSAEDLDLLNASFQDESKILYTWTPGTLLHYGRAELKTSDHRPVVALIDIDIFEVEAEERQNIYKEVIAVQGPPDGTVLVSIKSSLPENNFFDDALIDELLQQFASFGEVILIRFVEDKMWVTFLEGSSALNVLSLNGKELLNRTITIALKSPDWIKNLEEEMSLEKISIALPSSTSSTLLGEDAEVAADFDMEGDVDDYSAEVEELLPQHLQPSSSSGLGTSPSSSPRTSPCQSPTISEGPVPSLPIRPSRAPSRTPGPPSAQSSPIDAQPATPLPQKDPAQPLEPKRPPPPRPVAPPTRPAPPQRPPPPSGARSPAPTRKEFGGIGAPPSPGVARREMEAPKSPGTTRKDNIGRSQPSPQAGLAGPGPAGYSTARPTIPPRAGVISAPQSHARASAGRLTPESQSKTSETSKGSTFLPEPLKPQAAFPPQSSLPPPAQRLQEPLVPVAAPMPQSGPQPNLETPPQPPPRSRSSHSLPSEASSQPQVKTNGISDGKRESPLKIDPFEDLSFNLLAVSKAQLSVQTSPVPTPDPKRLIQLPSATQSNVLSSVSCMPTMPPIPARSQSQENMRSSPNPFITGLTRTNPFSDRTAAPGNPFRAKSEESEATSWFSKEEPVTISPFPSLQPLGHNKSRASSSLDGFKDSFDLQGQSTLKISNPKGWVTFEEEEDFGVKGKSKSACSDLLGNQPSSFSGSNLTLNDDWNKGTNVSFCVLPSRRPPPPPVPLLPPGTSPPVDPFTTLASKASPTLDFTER
UniProt P63165, whole entry, looked up: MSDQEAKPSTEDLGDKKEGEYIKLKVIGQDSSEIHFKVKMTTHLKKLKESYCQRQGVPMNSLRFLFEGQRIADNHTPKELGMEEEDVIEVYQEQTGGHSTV
UniProt P61956, whole entry, looked up: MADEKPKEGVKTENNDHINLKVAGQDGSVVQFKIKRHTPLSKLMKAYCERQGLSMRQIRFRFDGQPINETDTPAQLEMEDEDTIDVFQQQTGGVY
UniProt Q16563: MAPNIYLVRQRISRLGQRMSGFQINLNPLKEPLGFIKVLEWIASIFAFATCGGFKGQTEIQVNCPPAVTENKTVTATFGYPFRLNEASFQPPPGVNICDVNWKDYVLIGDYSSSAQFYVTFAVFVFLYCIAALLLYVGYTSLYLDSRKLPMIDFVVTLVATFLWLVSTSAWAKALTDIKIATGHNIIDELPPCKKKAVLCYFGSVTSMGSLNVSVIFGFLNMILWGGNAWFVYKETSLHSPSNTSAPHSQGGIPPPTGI
UniProt Q92797: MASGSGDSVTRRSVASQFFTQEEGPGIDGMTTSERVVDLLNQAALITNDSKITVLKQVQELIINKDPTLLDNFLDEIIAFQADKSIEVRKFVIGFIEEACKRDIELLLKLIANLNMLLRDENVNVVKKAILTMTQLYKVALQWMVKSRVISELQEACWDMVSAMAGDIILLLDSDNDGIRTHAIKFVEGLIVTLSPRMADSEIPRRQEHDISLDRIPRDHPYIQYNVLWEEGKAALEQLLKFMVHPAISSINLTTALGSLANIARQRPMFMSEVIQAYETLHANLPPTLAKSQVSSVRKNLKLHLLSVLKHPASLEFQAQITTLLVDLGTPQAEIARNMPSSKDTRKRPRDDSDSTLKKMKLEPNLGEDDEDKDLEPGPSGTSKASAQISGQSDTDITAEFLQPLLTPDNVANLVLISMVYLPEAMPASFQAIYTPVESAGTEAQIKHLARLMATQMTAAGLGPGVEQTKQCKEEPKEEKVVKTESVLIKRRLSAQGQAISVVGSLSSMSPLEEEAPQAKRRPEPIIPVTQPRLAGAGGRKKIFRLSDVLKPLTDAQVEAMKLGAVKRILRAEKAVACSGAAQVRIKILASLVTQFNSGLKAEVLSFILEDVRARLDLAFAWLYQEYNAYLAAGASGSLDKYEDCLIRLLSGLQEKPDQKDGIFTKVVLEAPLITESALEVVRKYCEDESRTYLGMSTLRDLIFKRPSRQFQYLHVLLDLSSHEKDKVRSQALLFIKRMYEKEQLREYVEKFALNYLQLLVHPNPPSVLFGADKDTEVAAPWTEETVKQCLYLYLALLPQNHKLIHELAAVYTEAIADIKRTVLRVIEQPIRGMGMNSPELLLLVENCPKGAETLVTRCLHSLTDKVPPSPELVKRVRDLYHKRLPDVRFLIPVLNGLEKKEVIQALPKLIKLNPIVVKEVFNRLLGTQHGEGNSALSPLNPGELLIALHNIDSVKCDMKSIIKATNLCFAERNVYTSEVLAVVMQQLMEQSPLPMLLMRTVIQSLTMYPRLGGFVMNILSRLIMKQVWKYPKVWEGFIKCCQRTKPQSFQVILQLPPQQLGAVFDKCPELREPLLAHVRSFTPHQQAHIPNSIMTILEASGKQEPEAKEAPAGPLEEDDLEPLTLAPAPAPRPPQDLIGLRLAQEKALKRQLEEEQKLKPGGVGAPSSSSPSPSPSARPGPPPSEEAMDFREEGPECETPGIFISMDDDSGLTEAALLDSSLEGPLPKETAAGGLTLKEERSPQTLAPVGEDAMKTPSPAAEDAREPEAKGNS
UniProt Q13043: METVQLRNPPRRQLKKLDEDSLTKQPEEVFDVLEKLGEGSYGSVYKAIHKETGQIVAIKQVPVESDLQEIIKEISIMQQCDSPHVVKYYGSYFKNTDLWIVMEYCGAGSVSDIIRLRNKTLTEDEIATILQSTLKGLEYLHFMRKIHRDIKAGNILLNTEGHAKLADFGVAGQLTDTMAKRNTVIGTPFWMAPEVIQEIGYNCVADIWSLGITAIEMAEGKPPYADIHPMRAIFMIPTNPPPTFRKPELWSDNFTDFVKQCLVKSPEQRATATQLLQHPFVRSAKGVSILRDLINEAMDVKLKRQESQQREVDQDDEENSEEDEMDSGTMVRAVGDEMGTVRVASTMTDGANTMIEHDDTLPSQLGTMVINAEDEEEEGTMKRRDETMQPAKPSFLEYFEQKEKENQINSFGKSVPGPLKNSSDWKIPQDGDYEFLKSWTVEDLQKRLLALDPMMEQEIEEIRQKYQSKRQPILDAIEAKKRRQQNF
UniProt Q9UNK0: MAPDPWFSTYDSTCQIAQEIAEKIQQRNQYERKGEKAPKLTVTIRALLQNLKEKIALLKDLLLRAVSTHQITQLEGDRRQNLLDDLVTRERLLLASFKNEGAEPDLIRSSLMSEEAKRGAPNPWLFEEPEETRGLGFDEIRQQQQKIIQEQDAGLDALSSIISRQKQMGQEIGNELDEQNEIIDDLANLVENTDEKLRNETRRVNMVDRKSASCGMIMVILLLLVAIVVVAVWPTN
UniProt Q12846: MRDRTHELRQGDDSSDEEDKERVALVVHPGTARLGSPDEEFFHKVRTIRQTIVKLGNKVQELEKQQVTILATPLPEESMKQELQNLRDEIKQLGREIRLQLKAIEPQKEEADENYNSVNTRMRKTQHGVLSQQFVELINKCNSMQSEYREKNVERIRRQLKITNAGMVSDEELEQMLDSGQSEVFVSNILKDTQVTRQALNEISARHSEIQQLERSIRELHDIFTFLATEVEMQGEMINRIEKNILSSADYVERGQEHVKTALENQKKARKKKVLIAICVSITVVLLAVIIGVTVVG
UniProt Q8N1F8: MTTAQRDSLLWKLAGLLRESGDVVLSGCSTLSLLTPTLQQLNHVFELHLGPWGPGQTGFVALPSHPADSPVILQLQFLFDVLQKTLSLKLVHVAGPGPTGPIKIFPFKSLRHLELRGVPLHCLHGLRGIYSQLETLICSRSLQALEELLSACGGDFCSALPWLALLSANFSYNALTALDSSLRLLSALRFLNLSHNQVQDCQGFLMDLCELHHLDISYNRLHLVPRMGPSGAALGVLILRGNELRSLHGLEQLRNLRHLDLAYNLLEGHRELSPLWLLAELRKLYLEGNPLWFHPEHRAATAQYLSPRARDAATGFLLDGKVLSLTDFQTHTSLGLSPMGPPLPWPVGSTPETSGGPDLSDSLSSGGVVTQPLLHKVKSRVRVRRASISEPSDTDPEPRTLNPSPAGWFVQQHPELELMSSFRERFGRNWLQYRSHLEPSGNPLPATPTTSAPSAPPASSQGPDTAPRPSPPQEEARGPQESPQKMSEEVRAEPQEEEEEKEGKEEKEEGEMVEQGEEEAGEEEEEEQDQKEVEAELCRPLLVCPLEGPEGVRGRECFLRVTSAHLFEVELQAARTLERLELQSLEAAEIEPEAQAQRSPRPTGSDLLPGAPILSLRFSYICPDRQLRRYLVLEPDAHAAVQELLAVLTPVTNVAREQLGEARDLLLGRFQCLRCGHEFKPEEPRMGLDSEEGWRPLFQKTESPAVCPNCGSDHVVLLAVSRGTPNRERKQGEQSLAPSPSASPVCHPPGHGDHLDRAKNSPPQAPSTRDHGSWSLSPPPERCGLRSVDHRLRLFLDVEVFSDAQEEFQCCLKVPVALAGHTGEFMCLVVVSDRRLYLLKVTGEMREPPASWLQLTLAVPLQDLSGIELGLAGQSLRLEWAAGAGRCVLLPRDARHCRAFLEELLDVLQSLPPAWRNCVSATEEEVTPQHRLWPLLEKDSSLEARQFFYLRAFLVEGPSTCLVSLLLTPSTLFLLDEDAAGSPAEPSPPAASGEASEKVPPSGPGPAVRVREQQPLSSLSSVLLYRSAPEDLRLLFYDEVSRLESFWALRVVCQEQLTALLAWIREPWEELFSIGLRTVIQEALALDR
UniProt Q8NBK3: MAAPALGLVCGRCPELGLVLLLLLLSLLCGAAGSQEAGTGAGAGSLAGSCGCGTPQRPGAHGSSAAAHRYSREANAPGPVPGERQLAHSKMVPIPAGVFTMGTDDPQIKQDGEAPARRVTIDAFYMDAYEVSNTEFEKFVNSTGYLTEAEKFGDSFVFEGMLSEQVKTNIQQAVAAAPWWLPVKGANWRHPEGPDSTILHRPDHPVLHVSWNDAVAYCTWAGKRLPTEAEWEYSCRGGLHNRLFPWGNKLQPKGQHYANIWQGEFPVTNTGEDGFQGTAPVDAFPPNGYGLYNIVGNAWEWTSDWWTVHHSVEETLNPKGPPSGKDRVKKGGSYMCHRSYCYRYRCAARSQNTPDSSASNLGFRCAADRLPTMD
UniProt O15260: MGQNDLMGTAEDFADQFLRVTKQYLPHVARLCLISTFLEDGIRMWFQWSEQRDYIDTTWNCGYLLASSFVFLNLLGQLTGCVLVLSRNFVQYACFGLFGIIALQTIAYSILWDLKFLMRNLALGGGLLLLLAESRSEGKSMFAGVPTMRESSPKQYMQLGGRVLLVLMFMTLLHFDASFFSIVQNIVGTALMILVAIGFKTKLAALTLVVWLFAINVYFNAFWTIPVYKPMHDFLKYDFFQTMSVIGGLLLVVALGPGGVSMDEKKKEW

Experiments:
Assay in all cases: log2 fold change, soluble protein after heating vs DMSO (PISA); higher = thermal stabilisation; K562 lysate, 10 uM; active = over 0.2 and 3.5 SD of the protein, either way, in both replicates (recomputed)
[1] = compound: Cc1cn(-c2cc(NC(=O)c3ccc(C)c(Nc4nccc(-c5cccnc5)n4)c3)cc(C(F)(F)F)c2)cn1 [nilotinib]
How it was run: (§1)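 A 30 min treatment with 10 μM compound was applied to crude K562 extract at 1 mg/mL protein in PBS pH 7.4 with 1 mM MgCl2. Heating for 3 min spanned 48°C-58°C, after which aliquots were pooled, adjusted to 0.5% NP-40 at 4°C and spun at 21,000xg for 90 min. TMTpro 16plex LC-MS/MS of the supernatant, with channel sums equalised, gave values recorded as log-two fold change in thermal stability against solvent controls, from duplicates.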

[2] = compound: Cc1nc(Nc2n[nH]c3c2CN(C(=O)N[C@H](CN(C)C)c2ccccc2)C3(C)C)c2sccc2n1
How it was run: as §1

[3] = compound: Cc1nc(Nc2ncc(C(=O)Nc3c(C)cccc3Cl)s2)cc(N2CCN(CCO)CC2)n1 [dasatinib]
How it was run: as §1

[4] = compound: Cc1ncc(-c2ccnc(Nc3ccc(S(C)(=O)=O)cc3)n2)n1C(C)C
How it was run: as §1

[5] = compound: Cn1cc(-c2ccc3c(c2)CCN3C(=O)Cc2cccc(C(F)(F)F)c2)c2c(N)ncnc21
How it was run: as §1

[6] = compound: Cn1cc(CNCC2CCN(c3ncc(C(=O)NO)cn3)CC2)c2ccccc21 [quisinostat]
How it was run: as §1

[7] = compound: Cn1cncc1[C@@](N)(c1ccc(Cl)cc1)c1ccc2c(c1)c(-c1cccc(Cl)c1)cc(=O)n2C [tipifarnib]
How it was run: as §1

[8] = compound: NC(=O)Nc1cc(-c2cccc(F)c2)sc1C(=O)N[C@H]1CCCNC1
How it was run: as §1

[9] = compound: NC(=O)c1cnc(N[C@@H]2CCCC[C@@H]2N)nc1Nc1cccc(-n2nccn2)c1
How it was run: as §1

[10] = compound: NC1(c2ccc(-c3nc4ccn5c(=O)[nH]nc5c4cc3-c3ccccc3)cc2)CCC1
How it was run: as §1

[11] = compound: NCC(=O)Nc1ccc(-n2nc(C(F)(F)F)cc2-c2ccc3c(ccc4ccccc43)c2)cc1
How it was run: as §1

[12] = compound: O=C(CCCCCCC(=O)Nc1ccccc1)NO [vorinostat]
How it was run: as §1

[13] = compound: O=C(O)c1ccc2c(c1)nc(Nc1cccc(Cl)c1)c1ccncc12 [silmitasertib]
How it was run: as §1

[14] = compound: O=C1NC(=O)C(c2cnc3ccccn23)=C1c1cn2c3c(cc(F)cc13)CN(C(=O)N1CCCCC1)CC2
How it was run: as §1

[15] = compound: c1cn2cc(-c3ccc4cn[nH]c4c3)nc(Nc3ccc(N4CCOCC4)cc3)c2n1 [entospletinib]
How it was run: as §1

Target | log2 fold change [1] | log2 fold change [2] | log2 fold change [3] | log2 fold change [4] | log2 fold change [5] | log2 fold change [6] | log2 fold change [7] | log2 fold change [8] | log2 fold change [9] | log2 fold change [10] | log2 fold change [11] | log2 fold change [12] | log2 fold change [13] | log2 fold change [14] | log2 fold change [15]
STX3 (UniProt Q13277) | inactive: -0.035 | inactive: -0.014 | inactive: -0.024 | inactive: 0.025 | inactive: 0.029 | inactive: 0.169 | inactive: 0.044 | inactive: -0.014 | inactive: 0.004 | inactive: 0.032 | inactive: -0.02 | inactive: 0.112 | inactive: 0.01 | inactive: 0.04 | inactive: -0.001
STX17 (UniProt P56962) | inactive: -0.065 | inactive: 0.006 | inactive: -0.076 | inactive: 0.017 | inactive: -0.051 | inactive: 0.012 | inactive: 0.04 | inactive: -0.007 | inactive: 0.057 | inactive: -0.044 | inactive: 0.131 | inactive: 0.13 | inactive: 0.011 | inactive: -0.063 | inactive: 0.021
STRN3 (UniProt Q13033) | inactive: 0.01 | inactive: 0.033 | inactive: 0.004 | inactive: -0.037 | inactive: 0.009 | inactive: 0.061 | inactive: -0.009 | inactive: 0.012 | inactive: -0.02 | inactive: 0.004 | inactive: -0.068 | inactive: 0.041 | inactive: 0.013 | inactive: -0.016 | inactive: -0.002
SYNJ1 (UniProt O43426) | inactive: 0.003 | inactive: 0.069 | inactive: 0.011 | inactive: -0.052 | inactive: -0.023 | inactive: -0.007 | inactive: -0.107 | inactive: 0.016 | inactive: 0.021 | inactive: 0.006 | inactive: -0.075 | inactive: -0.049 | inactive: 0.001 | inactive: -0.025 | inactive: -0.033
SUMO1 (UniProt P63165) | inactive: 0.006 | inactive: -0.001 | inactive: -0.023 | inactive: 0.016 | inactive: -0.016 | inactive: -0.042 | inactive: 0.002 | inactive: -0.064 | inactive: -0.033 | inactive: 0.126 | inactive: -0.042 | inactive: 0.044 | inactive: 0.076 | inactive: -0.086 | inactive: -0.031
TAB1 (UniProt Q15750) | inactive: 0 | inactive: 0.016 | inactive: -0.058 | inactive: 0.031 | inactive: 0.031 | inactive: -0.033 | inactive: 0.047 | inactive: 0.017 | inactive: 0.01 | inactive: 0.016 | inactive: 0.006 | inactive: -0.071 | inactive: -0.024 | inactive: -0.028 | inactive: -0.007
SUMO2 (UniProt P61956) | inactive: -0.017 | inactive: 0.011 | inactive: 0.075 | inactive: -0.009 | inactive: -0.058 | inactive: -0.04 | inactive: 0.007 | inactive: 0.006 | inactive: -0.007 | inactive: 0.03 | inactive: 0.045 | inactive: 0.222 | inactive: -0.09 | inactive: -0.007 | inactive: -0.006
SYPL1 (UniProt Q16563) | inactive: -0.005 | inactive: -0.006 | inactive: 0.013 | inactive: 0.025 | inactive: -0.014 | inactive: -0.075 | inactive: 0.034 | inactive: -0.002 | inactive: -0.013 | inactive: -0.044 | inactive: -0.003 | inactive: 0.005 | inactive: -0.03 | inactive: -0.02 | inactive: 0.014
SYMPK (UniProt Q92797) | inactive: 0.007 | inactive: 0.014 | inactive: -0.064 | inactive: -0.008 | inactive: -0.004 | inactive: -0.026 | inactive: -0.019 | inactive: 0.06 | inactive: 0.007 | inactive: -0.019 | inactive: 0.007 | inactive: -0.156 | inactive: 0.01 | inactive: 0.016 | inactive: 0.01
STXBP3 (UniProt O00186) | inactive: -0.006 | inactive: -0.043 | inactive: -0.037 | inactive: 0.055 | inactive: 0.009 | inactive: 0.099 | inactive: 0.006 | inactive: 0.004 | inactive: 0.009 | inactive: 0.008 | inactive: 0.009 | inactive: -0.179 | inactive: -0.014 | inactive: 0.016 | inactive: 0.003
TADA1 (UniProt Q96BN2) | inactive: 0.003 | inactive: 0.025 | inactive: 0.013 | inactive: -0.07 | inactive: -0.109 | inactive: -0.09 | inactive: -0.022 | inactive: 0.05 | inactive: -0.025 | inactive: 0.028 | inactive: 0.001 | inactive: -0.068 | inactive: 0.008 | inactive: 0.004 | inactive: -0.125
STK4 (UniProt Q13043) | inactive: -0.077 | inactive: 0.343 | inactive: 0.214 | inactive: 0.177 | inactive: 0.282 | inactive: -0.105 | inactive: -0.047 | active: 0.585 | inactive: 0.134 | inactive: -0.016 | inactive: 0.054 | inactive: -0.134 | inactive: 0.024 | inactive: 0.041 | inactive: 0.047
STX8 (UniProt Q9UNK0) | inactive: 0.022 | inactive: -0.028 | inactive: 0.031 | inactive: -0.056 | inactive: 0.106 | inactive: -0.111 | inactive: -0.019 | inactive: -0.006 | inactive: 0.012 | inactive: 0.06 | inactive: 0.009 | inactive: 0.074 | inactive: 0.038 | inactive: -0.065 | inactive: -0.047
SWAP70 (UniProt Q9UH65) | inactive: -0.027 | inactive: 0.039 | inactive: 0 | inactive: -0.01 | inactive: 0 | inactive: 0.062 | inactive: 0.035 | inactive: -0.015 | inactive: -0.004 | inactive: 0.012 | inactive: 0.008 | inactive: 0.012 | inactive: 0.007 | inactive: -0.038 | inactive: -0.007
STK36 (UniProt Q9NRP7) | inactive: 0.081 | inactive: -0.179 | inactive: -0.142 | inactive: -0.02 | inactive: -0.113 | active: -1.31 | inactive: -0.059 | inactive: 0.059 | inactive: 0.117 | inactive: -0.265 | inactive: 0.283 | inactive: 0.143 | inactive: -0.032 | inactive: 0.101 | inactive: -0.031
STX4 (UniProt Q12846) | inactive: -0.019 | inactive: 0.001 | inactive: -0.034 | inactive: -0.013 | inactive: 0.028 | inactive: 0.058 | inactive: 0.008 | inactive: 0.011 | inactive: 0.006 | inactive: 0.037 | inactive: 0.051 | inactive: 0.095 | inactive: 0.008 | inactive: 0.008 | inactive: 0.022
STK11IP (UniProt Q8N1F8) | inactive: 0.065 | inactive: 0.001 | inactive: -0.053 | inactive: -0.045 | inactive: -0.016 | inactive: -0.029 | inactive: -0.033 | inactive: -0.012 | inactive: -0.014 | inactive: 0.037 | inactive: -0.017 | active: -0.254 | inactive: 0.025 | inactive: 0.008 | inactive: 0.024
SUMF1 (UniProt Q8NBK3) | inactive: 0.064 | inactive: 0 | inactive: 0.056 | inactive: 0.001 | inactive: 0.052 | inactive: 0.054 | inactive: -0.055 | inactive: 0.06 | inactive: 0.043 | inactive: 0.001 | inactive: -0.056 | inactive: 0.026 | inactive: -0.026 | inactive: -0.037 | inactive: -0.113
SURF4 (UniProt O15260) | inactive: -0.032 | inactive: -0.018 | inactive: -0.03 | inactive: -0.026 | inactive: 0.004 | inactive: -0.013 | inactive: -0.09 | inactive: 0.002 | inactive: 0.012 | inactive: -0.027 | inactive: -0.022 | inactive: 0.004 | inactive: 0.022 | inactive: -0.025 | inactive: 0.021

Some entries already given with just log2 fold change [2] and log2 fold change [3]:
Target	log2 fold change [2]	log2 fold change [3]
STX3 (UniProt Q13277)	inactive: -0.014	inactive: -0.024
SWAP70 (UniProt Q9UH65)	inactive: 0.039	inactive: 0
